PubChem BioAssay AID686938 – Drosophila RNAi Screening Center | 2013

Test: 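Fly genes required for calcium entry once internal stores are emptied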 (primary screen)
Cells: Drosophila S2R+ cells
Reagents: long dsRNA against Drosophila genes, about 0.25 µg dsRNA per well, roughly 10,000 cells
Duration: 5 days of knock-down before the calcium assay
Conditions: thapsigargin (SERCA pump blocker) to empty calcium stores; entry signal taken 4 min after adding it
Measurement: 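Per-well fluo-4 fluorescence in two replicates, unnormalised, measured in resting cells and 4 min after store depletion by the SERCA blocker thapsigargin; ratio of the two present in few wells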
Reading the numbers: calcium entry signal: higher = stronger calcium signal after store depletion; entry to resting ratio: higher = more calcium entry relative to resting level; resting calcium signal: higher = higher resting calcium signal
Units: calcium entry signal in fluorescence units; resting calcium signal in fluorescence units
Call rule: 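Called when the plate z-score of the entry-to-rest ratio, mean of duplicates, falls below −3; wells with low overall dye signal (Fmax z below −2) or more than five off-targets excluded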
Meaning of the calls: active = strongly reduced calcium entry; inactive = no strong reduction
The deposit covers about 23,000 reagents; this is a random part of those with a known target gene and a result. Of all reagents, 75 (0.33%) are marked active. 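Raw plate signals without normalisation; calls rest on plate z-scores that were not deposited; ratio present for only 364 wells.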 The record does not give: the dose of the treatment.

The opening 6 records as a preview:
calcium entry signal, replicate 1 | calcium entry signal, replicate 2 | entry to resting ratio | resting calcium signal, replicate 1 | resting calcium signal, replicate 2 | outcome | Target gene | DRSC id
3.99e7 | 3.79e7 | – | 1.55e7 | 2.02e7 | inactive | Cdc14 (Cell division cycle 14) | DRSC03013
3.22e7 | 4.42e7 | – | 1.41e7 | 1.92e7 | inactive | CG13135 | DRSC02232
3.84e7 | 4.58e7 | – | 1.53e7 | 1.73e7 | inactive | phr6-4 ((6-4)-photolyase) | DRSC03589
2.60e7 | 2.62e7 | – | 1.25e7 | 1.12e7 | inactive | Spt (Spitting Image) | DRSC07123
6.31e7 | – | – | 2.92e7 | – | inactive | Ugt36D1 (UDP-glycosyltransferase family 36 member D1) | DRSC02600
5.41e7 | 3.45e7 | – | 2.38e7 | 1.66e7 | inactive | CG15293 | DRSC01919

The listing, from the first entry:
calcium entry signal, replicate 1 | calcium entry signal, replicate 2 | entry to resting ratio | resting calcium signal, replicate 1 | resting calcium signal, replicate 2 | outcome | Target gene | DRSC id
3.99e7 | 3.79e7 | – | 1.55e7 | 2.02e7 | inactive | Cdc14 (Cell division cycle 14) | DRSC03013
3.22e7 | 4.42e7 | – | 1.41e7 | 1.92e7 | inactive | CG13135 | DRSC02232
3.84e7 | 4.58e7 | – | 1.53e7 | 1.73e7 | inactive | phr6-4 ((6-4)-photolyase) | DRSC03589
2.60e7 | 2.62e7 | – | 1.25e7 | 1.12e7 | inactive | Spt (Spitting Image) | DRSC07123
6.31e7 | – | – | 2.92e7 | – | inactive | Ugt36D1 (UDP-glycosyltransferase family 36 member D1) | DRSC02600
5.41e7 | 3.45e7 | – | 2.38e7 | 1.66e7 | inactive | CG15293 | DRSC01919
4.34e7 | 5.90e7 | – | 2.23e7 | 3.04e7 | inactive | Tcs3 (Threonyl-carbamoyl synthesis 3) | DRSC10461
2.49e7 | 2.97e7 | – | 1.39e7 | 1.48e7 | inactive | Muc12Ea (Mucin 12Ea) | DRSC19937
5.30e7 | 3.48e7 | – | 3.31e7 | 1.44e7 | inactive | kst (karst) | DRSC08719
1.97e7 | 2.59e7 | – | 1.34e7 | 1.54e7 | inactive | Fad2 | DRSC11165
5.50e7 | 4.45e7 | – | 2.72e7 | 1.90e7 | inactive | CG15617 | DRSC06570
2.72e7 | 2.88e7 | – | 1.50e7 | 1.33e7 | inactive | mal (maroon-like) | DRSC20581
4.17e7 | – | – | 1.91e7 | – | inactive | piwi (P-element induced wimpy testis) | DRSC03592
3.02e7 | 6.13e7 | – | 1.54e7 | 2.68e7 | inactive | Tdc1 (Tyrosine decarboxylase 1) | DRSC04942
5.06e7 | 3.16e7 | – | 2.32e7 | 1.47e7 | inactive | Dad | DRSC16642
2.81e7 | – | – | 1.41e7 | – | inactive | TBPH (TAR DNA-binding protein-43 homolog) | DRSC04660
2.74e7 | 3.30e7 | – | 1.17e7 | 1.46e7 | inactive | CG14535 | DRSC02393
3.58e7 | 3.32e7 | – | 1.80e7 | 1.52e7 | inactive | CG1316 | DRSC08304
3.17e7 | 3.12e7 | – | 1.67e7 | 1.44e7 | inactive | CG9380 | DRSC04549
3.93e7 | – | – | 2.12e7 | – | inactive | Isha (Insulator su(Hw) mRNA adaptor) | DRSC04456
6.03e7 | 5.47e7 | – | 2.78e7 | 2.18e7 | inactive | CG34375 | DRSC14684
5.76e7 | 5.55e7 | – | 2.63e7 | 2.28e7 | inactive | CG34375 | DRSC14685
3.56e7 | 2.94e7 | – | 1.61e7 | 1.28e7 | inactive | CG3347 | DRSC00597
2.99e7 | 4.26e7 | – | 1.46e7 | 1.93e7 | inactive | Cdk5alpha (Cdk5 activator-like protein) | DRSC03290
3.38e7 | 4.50e7 | – | 1.44e7 | 1.87e7 | inactive | Cdk5alpha (Cdk5 activator-like protein) | DRSC23301
2.03e7 | 3.56e7 | – | 1.21e7 | 1.88e7 | inactive | QIL1 | DRSC10888
2.49e7 | 2.81e7 | – | 1.29e7 | 1.33e7 | inactive | ckd (cracked) | DRSC08418
2.32e7 | 4.82e7 | – | 1.28e7 | 5.91e7 | inactive | CG43336 | DRSC15765
3.02e7 | – | – | 2.03e7 | – | inactive | KdelR (KDEL receptor) | DRSC03353
4.31e7 | 7.65e7 | 2.2 | 1.92e7 | 3.10e7 | inactive | CG12206 | DRSC17828
3.76e7 | 5.98e7 | – | 1.70e7 | 2.50e7 | inactive | Cka (Connector of kinase to AP-1) | DRSC03476
1.78e7 | 2.86e7 | – | 1.07e7 | 1.39e7 | inactive | Cka (Connector of kinase to AP-1) | DRSC22858
3.52e7 | 2.36e7 | – | 2.50e7 | 1.01e7 | inactive | loj (logjam) | DRSC09791
3.57e7 | 3.42e7 | – | 1.70e7 | 1.63e7 | inactive | Sr-CIV (Scavenger receptor class C, type IV) | DRSC00575
2.87e7 | 2.97e7 | – | 1.51e7 | 1.17e7 | inactive | CG11581 | DRSC19407
3.97e7 | – | – | 2.26e7 | – | inactive | RluA-2 (RluA pseudouridine synthase 2) | DRSC02939
3.49e7 | 4.77e7 | – | 1.88e7 | 2.25e7 | inactive | Eaf6 (Esa1-associated factor 6) | DRSC09901
3.49e7 | 4.47e7 | – | 1.75e7 | 2.17e7 | inactive | Atg8a (Autophagy-related 8a) | DRSC18024
3.18e7 | 4.34e7 | – | 1.66e7 | 1.96e7 | inactive | lncRNA:CR43485 (long non-coding RNA:CR43485) | DRSC08059
3.11e7 | 3.32e7 | – | 1.52e7 | 1.29e7 | inactive | CG33521 | DRSC17179
3.51e7 | 4.85e7 | 2 | 1.78e7 | 1.98e7 | inactive | CG33521 | DRSC17211
3.61e7 | 3.35e7 | – | 1.82e7 | 1.55e7 | inactive | CG33521 | DRSC22919
3.79e7 | 3.66e7 | – | 2.10e7 | 1.69e7 | inactive | CG43293 | DRSC08797
3.73e7 | 4.56e7 | – | 1.63e7 | 2.24e7 | inactive | CG32809 | DRSC18507
3.50e7 | 4.20e7 | – | 1.66e7 | 2.10e7 | inactive | CG32809 | DRSC18592
4.37e7 | 3.19e7 | – | 2.45e7 | 1.64e7 | inactive | CG33262 | DRSC22893
2.14e7 | 1.82e7 | – | 1.25e7 | 1.03e7 | inactive | ara (araucan) | DRSC11322
5.31e7 | 2.65e7 | – | 2.64e7 | 1.21e7 | inactive | ara (araucan) | DRSC22984
4.67e7 | – | – | 2.21e7 | – | inactive | Myo31DF (Myosin 31DF) | DRSC03376
5.58e7 | 3.68e7 | – | 2.64e7 | 1.65e7 | inactive | Myo31DF (Myosin 31DF) | DRSC22702
4.10e7 | 4.85e7 | – | 5.72e7 | 2.13e7 | inactive | CG31219 | DRSC15140
2.07e7 | 2.07e7 | – | 1.29e7 | 1.19e7 | inactive | RnrS (Ribonucleoside diphosphate reductase small subunit) | DRSC07533
1.89e7 | 1.64e7 | – | 1.13e7 | 1.01e7 | inactive | Polr2A (RNA polymerase II subunit A) | DRSC20280
2.41e7 | 2.19e7 | – | 1.44e7 | 1.25e7 | inactive | msi (musashi) | DRSC17003
2.65e7 | 3.98e7 | – | 1.41e7 | 1.85e7 | inactive | CG9215 | DRSC20171
4.16e7 | 3.58e7 | – | 2.10e7 | 1.76e7 | inactive | dpr15 (defective proboscis extension response 15) | DRSC12891
2.37e7 | 2.35e7 | – | 1.21e7 | 1.31e7 | inactive | dpr15 (defective proboscis extension response 15) | DRSC14187
1.93e7 | 2.28e7 | – | 1.04e7 | 1.22e7 | inactive | dpr15 (defective proboscis extension response 15) | DRSC14188
